PMC4882559 (Marine Drugs, 2016)

test: general procedure: solution-phase peptide synthesis; HATU/DIPEA; settings: coupling step

Question: For “(S)-2-((R)-2-(Dimethylamino)-3-methylbutanamido)-N-((3R,4S,5S)-1-((S)-2-((1R,2R)-3-(3-(2-fluorophenyl)azetidin-1-yl)-1-methoxy-2-methyl-3-oxopropyl)pyrrolidin-1-yl)-3-methoxy-5-methyl-1-oxoheptan-4-yl)-N,3-dimethylbutanamide”, which step yield is on record?
Answer: The step yield was 40%.

Question: Which step yield does the source give for “(S)-2-((R)-2-(Dimethylamino)-3-methylbutanamido)-N-((3R,4S,5S)-1-((S)-2-((1R,2R)-3-(3-(2-isopropylphenyl)azetidin-1-yl)-1-methoxy-2-methyl-3-oxopropyl)pyrrolidin-1-yl)-3-methoxy-5-methyl-1-oxoheptan-4-yl)-N,3-dimethylbutanamide” here?
Answer: The step yield was 48%.

Question: For “(S)-2-((R)-2-(Dimethylamino)-3-methylbutanamido)-N-((3R,4S,5S)-1-((S)-2-((1R,2R)-3-(3-(3-fluorophenyl)azetidin-1-yl)-1-methoxy-2-methyl-3-oxopropyl)pyrrolidin-1-yl)-3-methoxy-5-methyl-1-oxoheptan-4-yl)-N,3-dimethylbutanamide”, which step yield is on record?
Answer: Its step yield is 54%.

Question: With “(S)-2-((R)-2-(Dimethylamino)-3-methylbutanamido)-N-((3R,4S,5S)-3-methoxy-1-((S)-2-((1R,2R)-1-methoxy-2-methyl-3-oxo-3-(3-phenylazetidin-1-yl)propyl)pyrrolidin-1-yl)-5-methyl-1-oxoheptan-4-yl)-N,3-dimethylbutanamide” as the substance, how does the step yield read?
Answer: The step yield was 45%.

Question: Which step yield does the source give for “(S)-N-((3R,4S,5S)-1-((S)-2-((1R,2R)-3-(3-(3-Chloro-4-fluorophenyl)azetidin-1-yl)-1-methoxy-2-methyl-3-oxopropyl)pyrrolidin-1-yl)-3-methoxy-5-methyl-1-oxoheptan-4-yl)-2-((R)-2-(dimethylamino)-3-methylbutanamido)-N,3-dimethylbutanamide” here?
Answer: Its step yield is 44%.

Question: With “(S)-N-((3R,4S,5S)-1-((S)-2-((1R,2R)-3-(3-(4-(tert-Butyl)phenyl)azetidin-1-yl)-1-methoxy-2-methyl-3-oxopropyl)pyrrolidin-1-yl)-3-methoxy-5-methyl-1-oxoheptan-4-yl)-2-((R)-2-(dimethylamino)-3-methylbutanamido)-N,3-dimethylbutanamide” as the substance, how does the step yield read?
Answer: Its step yield is 35%.

Question: For “(S)-N-((3R,4S,5S)-1-((S)-2-((1R,2R)-3-(3-(4-Chloro-2-methoxyphenyl)azetidin-1-yl)-1-methoxy-2-methyl-3-oxopropyl)pyrrolidin-1-yl)-3-methoxy-5-methyl-1-oxoheptan-4-yl)-2-((R)-2-(dimethylamino)-3-methylbutanamido)-N,3-dimethylbutanamide”, which step yield is on record?
Answer: Its step yield is 45%.

Question: For “(S)-N-((3R,4S,5S)-1-((S)-2-((1R,2R)-3-(3-(4-Chlorophenyl)azetidin-1-yl)-1-methoxy-2-methyl-3-oxopropyl)pyrrolidin-1-yl)-3-methoxy-5-methyl-1-oxoheptan-4-yl)-2-((R)-2-(dimethylamino)-3-methylbutanamido)-N,3-dimethylbutanamide”, which step yield is on record?
Answer: The step yield was 66%.

Question: For “(S)-N-((3R,4S,5S)-1-((S)-2-((1R,2R)-3-(3-([1,1′-Biphenyl]-4-yl)azetidin-1-yl)-1-methoxy-2-methyl-3-oxopropyl)pyrrolidin-1-yl)-3-methoxy-5-methyl-1-oxoheptan-4-yl)-2-((R)-2-(dimethylamino)-3-methylbutanamido)-N,3-dimethylbutanamide”, which step yield is on record?
Answer: Its step yield is 70%.
